Laboratory results as given in US20200318125A1.
These are yes or no findings as the source states them, for the method shown. Some entries that bind do so weakly or less than the wild type.

The chains behind the UniProt entries cited, without tags or fusion partners. Residues count along the entry.
UniProt P02769, residues 25-607: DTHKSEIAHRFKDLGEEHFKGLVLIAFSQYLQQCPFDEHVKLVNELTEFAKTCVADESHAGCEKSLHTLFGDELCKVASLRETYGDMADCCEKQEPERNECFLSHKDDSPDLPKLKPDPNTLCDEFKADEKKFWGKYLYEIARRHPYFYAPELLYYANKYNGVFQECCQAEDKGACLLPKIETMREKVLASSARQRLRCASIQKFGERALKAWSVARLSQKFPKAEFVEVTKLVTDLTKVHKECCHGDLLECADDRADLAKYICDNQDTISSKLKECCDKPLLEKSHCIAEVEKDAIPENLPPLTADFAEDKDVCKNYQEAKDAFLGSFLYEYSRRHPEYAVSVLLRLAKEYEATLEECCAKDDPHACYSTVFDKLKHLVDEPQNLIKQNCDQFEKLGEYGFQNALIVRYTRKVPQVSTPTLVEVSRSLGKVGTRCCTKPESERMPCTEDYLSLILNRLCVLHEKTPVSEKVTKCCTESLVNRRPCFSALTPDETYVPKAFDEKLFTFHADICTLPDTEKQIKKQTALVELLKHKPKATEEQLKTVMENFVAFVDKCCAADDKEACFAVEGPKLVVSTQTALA

Molecular target: BSA-RhB conjugate (bovine) (UniProt P02769)
Assay: zeta potential and DLS of peptide/protein mixtures at molar ratios 1 to 25

B1: BP100(KH)9 (peptide)
peptide: KKLFKKILKYLKHKHKHKHKHKHKHKHKH
B1 was tested, and the binding was “binds”.
